# The other results are listed elsewhere or left out.
# B1: Gal 10 (Homo sapiens), Q05315 (protein)
# chain: MSLLPVPYTEAASLSTGSTVTIKGRPLVCFLNEPYLQVDFHTEMKEESDIVFHFQVCFGRRVVMNSREYGAWKQQVESKNMPFQDGQEFELSISVLPDKYQVMVNGQSSYTFDHRIKPEAVKMVQVWRDISLTKFNVSYLKR
# Key:
# Experiment in all cases: glycan array binding signal (z-score within array); higher = stronger binding
# Conditions in all cases: glycan notation: IUPAC condensed, linker removed
# [1] = biological target: Gal(b1-4)GlcNAc(b1-3)Gal(b1-4)GlcNAc(b1-3)Gal(b1-4)GlcNAc(b1-2)Man(a1-3)[Gal(b1-4)GlcNAc(b1-3)Gal(b1-4)GlcNAc(b1-3)Gal(b1-4)GlcNAc(b1-2)Man(a1-6)]Man(b1-4)GlcNAc(b1-4)GlcNAc
# Procedure, shortened: (§1)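 Columns mapping to the same glycan were averaged after glycan names were converted to IUPAC-condensed notation. The data come from 3228 arrays in the Consortium for Functional Glycomics database, limited to those with an available protein sequence. Binding is reported as a within-array Z-score averaged across arrays of one protein sequence and across linkers.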
# [2] = biological target: Gal(b1-4)GlcNAc(b1-3)Gal(b1-4)GlcNAc(b1-3)Gal(b1-4)GlcNAc(b1-2)Man(a1-3)[Gal(b1-4)GlcNAc(b1-3)Gal(b1-4)GlcNAc(b1-3)Gal(b1-4)GlcNAc(b1-2)Man(a1-6)]Man(b1-4)GlcNAc(b1-4)[Fuc(a1-6)]GlcNAc
# Procedure, shortened: as §1
# [3] = biological target: Gal(b1-4)GlcNAc(b1-3)Gal(b1-4)GlcNAc(b1-3)Gal(b1-4)GlcNAc(b1-2)[Gal(b1-4)GlcNAc(b1-3)Gal(b1-4)GlcNAc(b1-3)Gal(b1-4)GlcNAc(b1-6)]Man(a1-6)[Gal(b1-4)GlcNAc(b1-3)Gal(b1-4)GlcNAc(b1-3)Gal(b1-4)GlcNAc(b1-2)Man(a1-3)]Man(b1-4)GlcNAc(b1-4)[Fuc(a1-6)]GlcNAc
# Procedure, shortened: as §1
# [4] = biological target: Gal(b1-4)GlcNAc(b1-3)Gal(b1-4)GlcNAc(b1-3)Gal(b1-4)GlcNAc(b1-3)Gal(b1-4)GlcNAc(b1-2)Man(a1-3)[Gal(b1-4)GlcNAc(b1-3)Gal(b1-4)GlcNAc(b1-3)Gal(b1-4)GlcNAc(b1-3)Gal(b1-4)GlcNAc(b1-2)Man(a1-6)]Man(b1-4)GlcNAc(b1-4)GlcNAc
# Procedure, shortened: as §1
# [5] = biological target: Gal(b1-4)GlcNAc(b1-3)Gal(b1-4)GlcNAc(b1-3)Gal(b1-4)GlcNAc(b1-3)Gal(b1-4)GlcNAc(b1-2)Man(a1-3)[Gal(b1-4)GlcNAc(b1-3)Gal(b1-4)GlcNAc(b1-3)Gal(b1-4)GlcNAc(b1-3)Gal(b1-4)GlcNAc(b1-2)Man(a1-6)]Man(b1-4)GlcNAc(b1-4)[Fuc(a1-6)]GlcNAc
# Procedure, shortened: as §1
# [6] = biological target: Gal(b1-4)GlcNAc(b1-3)Gal(b1-4)GlcNAc(b1-3)Gal(b1-4)GlcNAc(b1-3)Gal(b1-4)GlcNAc(b1-2)[Gal(b1-4)GlcNAc(b1-3)Gal(b1-4)GlcNAc(b1-3)Gal(b1-4)GlcNAc(b1-3)Gal(b1-4)GlcNAc(b1-6)]Man(a1-6)[Gal(b1-4)GlcNAc(b1-3)Gal(b1-4)GlcNAc(b1-3)Gal(b1-4)GlcNAc(b1-3)Gal(b1-4)GlcNAc(b1-2)Man(a1-3)]Man(b1-4)GlcNAc(b1-4)[Fuc(a1-6)]GlcNAc
# Procedure, shortened: as §1
# [7] = biological target: Gal(b1-4)GlcNAc(b1-3)Gal(b1-4)GlcNAc(b1-3)Gal(b1-4)GlcNAc(b1-3)Gal(b1-4)GlcNAc(b1-3)Gal(b1-4)GlcNAc(b1-2)Man(a1-3)[Gal(b1-4)GlcNAc(b1-3)Gal(b1-4)GlcNAc(b1-3)Gal(b1-4)GlcNAc(b1-3)Gal(b1-4)GlcNAc(b1-3)Gal(b1-4)GlcNAc(b1-2)Man(a1-6)]Man(b1-4)GlcNAc(b1-4)GlcNAc
# Procedure, shortened: as §1
# [8] = biological target: Gal(b1-4)GlcNAc(b1-3)Gal(b1-4)GlcNAc(b1-3)Gal(b1-4)GlcNAc(b1-3)Gal(b1-4)GlcNAc(b1-3)Gal(b1-4)GlcNAc(b1-2)Man(a1-3)[Gal(b1-4)GlcNAc(b1-3)Gal(b1-4)GlcNAc(b1-3)Gal(b1-4)GlcNAc(b1-3)Gal(b1-4)GlcNAc(b1-3)Gal(b1-4)GlcNAc(b1-2)Man(a1-6)]Man(b1-4)GlcNAc(b1-4)[Fuc(a1-6)]GlcNAc
# Procedure, shortened: as §1
# [9] = biological target: Gal(b1-4)GlcNAc(b1-3)Gal(b1-4)GlcNAc(b1-3)Gal(b1-4)GlcNAc(b1-3)Gal(b1-4)GlcNAc(b1-3)Gal(b1-4)GlcNAc(b1-2)[Gal(b1-4)GlcNAc(b1-3)Gal(b1-4)GlcNAc(b1-3)Gal(b1-4)GlcNAc(b1-3)Gal(b1-4)GlcNAc(b1-3)Gal(b1-4)GlcNAc(b1-6)]Man(a1-6)[Gal(b1-4)GlcNAc(b1-3)Gal(b1-4)GlcNAc(b1-3)Gal(b1-4)GlcNAc(b1-3)Gal(b1-4)GlcNAc(b1-3)Gal(b1-4)GlcNAc(b1-2)Man(a1-3)]Man(b1-4)GlcNAc(b1-4)[Fuc(a1-6)]GlcNAc
# Procedure, shortened: as §1
# [10] = biological target: Gal(b1-4)GlcNAc(b1-3)Gal(b1-4)GlcNAc(b1-3)Gal(b1-4)GlcNAc(b1-3)Gal(b1-4)GlcNAc(b1-3)Gal(b1-4)GlcNAc(b1-3)Gal(b1-4)GlcNAc(b1-2)Man(a1-3)[Gal(b1-4)GlcNAc(b1-3)Gal(b1-4)GlcNAc(b1-3)Gal(b1-4)GlcNAc(b1-3)Gal(b1-4)GlcNAc(b1-3)Gal(b1-4)GlcNAc(b1-3)Gal(b1-4)GlcNAc(b1-2)Man(a1-6)]Man(b1-4)GlcNAc(b1-4)GlcNAc
# Procedure, shortened: as §1
# [11] = biological target: Gal(b1-4)GlcNAc(b1-3)Gal(b1-4)GlcNAc(b1-3)GalNAc
# Procedure, shortened: as §1
# [12] = biological target: Gal(b1-4)GlcNAc(b1-3)Gal(b1-4)GlcNAc(b1-3)[Gal(b1-4)GlcNAc(b1-3)Gal(b1-4)GlcNAc(b1-6)]GalNAc
# Procedure, shortened: as §1
# [13] = biological target: Gal(b1-4)GlcNAc(b1-3)Gal(b1-4)GlcNAc(b1-6)[Gal(b1-3)]GalNAc
# Procedure, shortened: as §1
# [14] = biological target: Gal(b1-4)GlcNAc(b1-3)Gal(b1-4)[Fuc(a1-3)GlcNAc(b1-6)]Gal(b1-4)Glc
# Procedure, shortened: as §1
# [15] = biological target: Gal(b1-4)GlcNAc(b1-3)Gal(b1-4)[Fuc(a1-3)]GlcNAc(b1-3)Gal(b1-4)[Fuc(a1-3)]GlcNAc
# Procedure, shortened: as §1
# [16] = biological target: Gal(b1-4)GlcNAc(b1-3)GalNAc
# Procedure, shortened: as §1
# [17] = biological target: Gal(b1-4)GlcNAc(b1-3)[Fuc(a1-3)GlcNAc(b1-6)]Gal(b1-4)Glc
# Procedure, shortened: as §1
# [18] = biological target: Gal(b1-4)GlcNAc(b1-3)[Gal(b1-4)GlcNAc(b1-6)]Gal(b1-4)GlcNAc
# Procedure, shortened: as §1
# [19] = biological target: Gal(b1-4)GlcNAc(b1-3)[Gal(b1-4)GlcNAc(b1-6)]GalNAc
# Procedure, shortened: as §1
# [20] = biological target: Gal(b1-4)GlcNAc(b1-3)[GlcNAc(b1-6)]Gal(b1-4)GlcNAc
# Procedure, shortened: as §1
# [21] = biological target: Gal(b1-4)GlcNAc(b1-6)Gal(b1-4)GlcNAc
# Procedure, shortened: as §1
# [22] = biological target: Gal(b1-4)GlcNAc(b1-6)GalNAc
# Procedure, shortened: as §1
# [23] = biological target: Gal(b1-4)GlcNAc(b1-6)[Gal(b1-3)]GalNAc
# Procedure, shortened: as §1
# [24] = biological target: Gal(b1-4)GlcNAc(b1-6)[Gal(b1-4)GlcNAc(b1-3)]GalNAc
# Procedure, shortened: as §1
# Gal(b1-4)GlcNAc6P = biological target: Gal(b1-4)GlcNAc6P
# Procedure, shortened: as §1
# Gal(b1-6)Gal = biological target: Gal(b1-6)Gal
# Procedure, shortened: as §1
# Gal3S(b1-3)GalNAc = biological target: Gal3S(b1-3)GalNAc
# Procedure, shortened: as §1
# Gal3S(b1-3)GlcNAc = biological target: Gal3S(b1-3)GlcNAc
# Procedure, shortened: as §1
# [25] = biological target: Gal3S(b1-3)[Fuc(a1-4)]GlcNAc
# Procedure, shortened: as §1
# Gal3S(b1-4)Glc = biological target: Gal3S(b1-4)Glc
# Procedure, shortened: as §1
# Gal3S(b1-4)Glc6S = biological target: Gal3S(b1-4)Glc6S
# Procedure, shortened: as §1
# Gal3S(b1-4)GlcNAc = biological target: Gal3S(b1-4)GlcNAc
# Procedure, shortened: as §1
# Gal3S(b1-4)GlcNAc6S = biological target: Gal3S(b1-4)GlcNAc6S
# Procedure, shortened: as §1
# [26] = biological target: Gal3S(b1-4)[Fuc(a1-3)]Glc
# Procedure, shortened: as §1
# [27] = biological target: Gal3S(b1-4)[Fuc(a1-3)]Glc6S
# Procedure, shortened: as §1
# [28] = biological target: Gal3S(b1-4)[Fuc(a1-3)]GlcNAc
# Procedure, shortened: as §1
# [29] = biological target: Gal3S(b1-4)[Fuc(a1-3)]GlcNAc6S
# Procedure, shortened: as §1
# Gal3S4S(b1-4)GlcNAc = biological target: Gal3S4S(b1-4)GlcNAc
# Procedure, shortened: as §1
# Gal3S6S(b1-4)GlcNAc = biological target: Gal3S6S(b1-4)GlcNAc
# Procedure, shortened: as §1
# Gal3S6S(b1-4)GlcNAc6S = biological target: Gal3S6S(b1-4)GlcNAc6S
# Procedure, shortened: as §1
# Gal4S(b1-4)GlcNAc = biological target: Gal4S(b1-4)GlcNAc
# Procedure, shortened: as §1
# Gal4S6S(b1-4)GlcNAc = biological target: Gal4S6S(b1-4)GlcNAc
# Procedure, shortened: as §1
# Gal6P(b1-4)GlcNAc = biological target: Gal6P(b1-4)GlcNAc
# Procedure, shortened: as §1
# Gal6S(b1-3)GlcNAc = biological target: Gal6S(b1-3)GlcNAc
# Procedure, shortened: as §1
# Gal6S(b1-3)GlcNAc6S = biological target: Gal6S(b1-3)GlcNAc6S
# Procedure, shortened: as §1
binder,measurement,setting,value
B1,glycan array binding signal (z-score),[1],0.745
same,glycan array binding signal (z-score),[2],0.386
same,glycan array binding signal (z-score),[3],5.64
same,glycan array binding signal (z-score),[4],1.01
same,glycan array binding signal (z-score),[5],-0.222
same,glycan array binding signal (z-score),[6],-0.122
same,glycan array binding signal (z-score),[7],3.23
same,glycan array binding signal (z-score),[8],0.227
same,glycan array binding signal (z-score),[9],-0.151
same,glycan array binding signal (z-score),[10],-0.119
same,glycan array binding signal (z-score),[11],-0.288
same,glycan array binding signal (z-score),[12],-0.147
same,glycan array binding signal (z-score),[13],3.3
same,glycan array binding signal (z-score),[14],0.658
same,glycan array binding signal (z-score),[15],0.655
same,glycan array binding signal (z-score),[16],-0.548
same,glycan array binding signal (z-score),[17],-0.497
same,glycan array binding signal (z-score),[18],-0.643
same,glycan array binding signal (z-score),[19],-0.376
same,glycan array binding signal (z-score),[20],0.216
same,glycan array binding signal (z-score),[21],-0.659
same,glycan array binding signal (z-score),[22],-0.462
same,glycan array binding signal (z-score),[23],-0.518
same,glycan array binding signal (z-score),[24],0.246
same,glycan array binding signal (z-score),Gal(b1-4)GlcNAc6P,-0.463
same,glycan array binding signal (z-score),Gal(b1-6)Gal,1.22
same,glycan array binding signal (z-score),Gal3S(b1-3)GalNAc,-0.157
same,glycan array binding signal (z-score),Gal3S(b1-3)GlcNAc,-0.542
same,glycan array binding signal (z-score),[25],-0.033
same,glycan array binding signal (z-score),Gal3S(b1-4)Glc,-0.577
same,glycan array binding signal (z-score),Gal3S(b1-4)Glc6S,0.08
same,glycan array binding signal (z-score),Gal3S(b1-4)GlcNAc,-0.335
same,glycan array binding signal (z-score),Gal3S(b1-4)GlcNAc6S,-0.008
same,glycan array binding signal (z-score),[26],-0.407
same,glycan array binding signal (z-score),[27],0.301
same,glycan array binding signal (z-score),[28],-0.495
same,glycan array binding signal (z-score),[29],-0.211
same,glycan array binding signal (z-score),Gal3S4S(b1-4)GlcNAc,-1.33
same,glycan array binding signal (z-score),Gal3S6S(b1-4)GlcNAc,0.652
same,glycan array binding signal (z-score),Gal3S6S(b1-4)GlcNAc6S,-0.166
same,glycan array binding signal (z-score),Gal4S(b1-4)GlcNAc,-0.269
same,glycan array binding signal (z-score),Gal4S6S(b1-4)GlcNAc,0.061
same,glycan array binding signal (z-score),Gal6P(b1-4)GlcNAc,-0.104
same,glycan array binding signal (z-score),Gal6S(b1-3)GlcNAc,-0.062
same,glycan array binding signal (z-score),Gal6S(b1-3)GlcNAc6S,-0.718

# Rewritten with bars between the fields: part of the list above.
binder | measurement | setting | value
B1 | glycan array binding signal (z-score) | [15] | 0.655
same | glycan array binding signal (z-score) | [16] | -0.548
